# The supplement of paper PMC10849652
# By UniProt entry, the sequences of proteins in these tests, tags left out. Where a name states a change or a piece, a line headed by the entry shows the natural chain unless it says otherwise.
# UniProt Q6VVX0: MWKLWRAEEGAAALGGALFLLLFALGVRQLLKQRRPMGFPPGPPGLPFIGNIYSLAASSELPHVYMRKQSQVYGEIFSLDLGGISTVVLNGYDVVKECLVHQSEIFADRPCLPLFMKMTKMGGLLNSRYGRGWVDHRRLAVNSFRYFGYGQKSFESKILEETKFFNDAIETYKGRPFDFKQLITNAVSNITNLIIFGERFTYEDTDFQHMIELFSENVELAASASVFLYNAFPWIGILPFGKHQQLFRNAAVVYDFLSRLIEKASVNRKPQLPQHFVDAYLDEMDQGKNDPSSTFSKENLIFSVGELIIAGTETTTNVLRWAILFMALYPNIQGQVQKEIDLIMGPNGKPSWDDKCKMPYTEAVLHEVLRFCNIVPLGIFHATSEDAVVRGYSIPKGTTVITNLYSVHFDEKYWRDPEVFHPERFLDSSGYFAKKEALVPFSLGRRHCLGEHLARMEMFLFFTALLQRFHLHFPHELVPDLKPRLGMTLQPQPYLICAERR
# UniProt Q6IQ26: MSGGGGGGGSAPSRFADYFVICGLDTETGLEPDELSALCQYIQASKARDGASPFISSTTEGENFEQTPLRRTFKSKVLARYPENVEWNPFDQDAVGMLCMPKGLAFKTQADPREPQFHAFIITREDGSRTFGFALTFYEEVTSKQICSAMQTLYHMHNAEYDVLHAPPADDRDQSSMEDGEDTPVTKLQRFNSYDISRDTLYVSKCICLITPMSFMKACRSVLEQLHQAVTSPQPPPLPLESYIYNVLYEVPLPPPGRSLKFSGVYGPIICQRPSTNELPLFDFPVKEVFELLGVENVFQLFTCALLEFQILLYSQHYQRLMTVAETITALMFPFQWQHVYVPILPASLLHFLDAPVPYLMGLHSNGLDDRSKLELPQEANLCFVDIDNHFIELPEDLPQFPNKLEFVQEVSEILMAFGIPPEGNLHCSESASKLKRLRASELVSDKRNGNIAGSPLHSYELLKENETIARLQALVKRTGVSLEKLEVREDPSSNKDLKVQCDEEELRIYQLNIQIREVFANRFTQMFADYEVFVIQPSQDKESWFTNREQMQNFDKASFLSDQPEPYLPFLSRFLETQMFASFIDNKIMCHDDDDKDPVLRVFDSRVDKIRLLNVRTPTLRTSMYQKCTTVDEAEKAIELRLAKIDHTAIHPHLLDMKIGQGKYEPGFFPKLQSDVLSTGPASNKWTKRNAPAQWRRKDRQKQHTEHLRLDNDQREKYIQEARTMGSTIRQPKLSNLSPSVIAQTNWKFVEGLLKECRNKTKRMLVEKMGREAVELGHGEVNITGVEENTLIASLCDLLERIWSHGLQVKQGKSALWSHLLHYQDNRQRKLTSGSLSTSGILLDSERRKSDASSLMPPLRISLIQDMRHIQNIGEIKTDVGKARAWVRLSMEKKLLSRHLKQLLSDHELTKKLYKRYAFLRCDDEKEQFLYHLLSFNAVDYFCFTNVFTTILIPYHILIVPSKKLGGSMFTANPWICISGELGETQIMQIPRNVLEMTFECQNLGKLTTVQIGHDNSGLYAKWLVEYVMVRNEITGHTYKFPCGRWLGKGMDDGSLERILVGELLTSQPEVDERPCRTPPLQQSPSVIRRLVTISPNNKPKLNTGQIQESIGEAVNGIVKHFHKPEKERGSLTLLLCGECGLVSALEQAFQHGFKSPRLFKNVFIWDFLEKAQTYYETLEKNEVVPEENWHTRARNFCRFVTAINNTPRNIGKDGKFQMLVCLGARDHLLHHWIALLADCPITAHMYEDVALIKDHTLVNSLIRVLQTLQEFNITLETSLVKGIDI
# UniProt Q9UIK4: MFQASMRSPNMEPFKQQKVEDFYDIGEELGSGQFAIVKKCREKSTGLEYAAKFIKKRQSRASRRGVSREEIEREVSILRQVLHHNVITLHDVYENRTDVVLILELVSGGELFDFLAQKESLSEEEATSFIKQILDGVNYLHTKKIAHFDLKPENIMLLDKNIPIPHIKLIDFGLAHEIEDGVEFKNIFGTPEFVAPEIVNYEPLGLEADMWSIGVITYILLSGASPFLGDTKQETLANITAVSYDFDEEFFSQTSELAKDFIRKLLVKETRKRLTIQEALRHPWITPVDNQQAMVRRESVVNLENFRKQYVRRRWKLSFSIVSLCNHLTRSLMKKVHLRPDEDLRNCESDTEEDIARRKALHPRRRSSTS
# UniProt Q8TEH3: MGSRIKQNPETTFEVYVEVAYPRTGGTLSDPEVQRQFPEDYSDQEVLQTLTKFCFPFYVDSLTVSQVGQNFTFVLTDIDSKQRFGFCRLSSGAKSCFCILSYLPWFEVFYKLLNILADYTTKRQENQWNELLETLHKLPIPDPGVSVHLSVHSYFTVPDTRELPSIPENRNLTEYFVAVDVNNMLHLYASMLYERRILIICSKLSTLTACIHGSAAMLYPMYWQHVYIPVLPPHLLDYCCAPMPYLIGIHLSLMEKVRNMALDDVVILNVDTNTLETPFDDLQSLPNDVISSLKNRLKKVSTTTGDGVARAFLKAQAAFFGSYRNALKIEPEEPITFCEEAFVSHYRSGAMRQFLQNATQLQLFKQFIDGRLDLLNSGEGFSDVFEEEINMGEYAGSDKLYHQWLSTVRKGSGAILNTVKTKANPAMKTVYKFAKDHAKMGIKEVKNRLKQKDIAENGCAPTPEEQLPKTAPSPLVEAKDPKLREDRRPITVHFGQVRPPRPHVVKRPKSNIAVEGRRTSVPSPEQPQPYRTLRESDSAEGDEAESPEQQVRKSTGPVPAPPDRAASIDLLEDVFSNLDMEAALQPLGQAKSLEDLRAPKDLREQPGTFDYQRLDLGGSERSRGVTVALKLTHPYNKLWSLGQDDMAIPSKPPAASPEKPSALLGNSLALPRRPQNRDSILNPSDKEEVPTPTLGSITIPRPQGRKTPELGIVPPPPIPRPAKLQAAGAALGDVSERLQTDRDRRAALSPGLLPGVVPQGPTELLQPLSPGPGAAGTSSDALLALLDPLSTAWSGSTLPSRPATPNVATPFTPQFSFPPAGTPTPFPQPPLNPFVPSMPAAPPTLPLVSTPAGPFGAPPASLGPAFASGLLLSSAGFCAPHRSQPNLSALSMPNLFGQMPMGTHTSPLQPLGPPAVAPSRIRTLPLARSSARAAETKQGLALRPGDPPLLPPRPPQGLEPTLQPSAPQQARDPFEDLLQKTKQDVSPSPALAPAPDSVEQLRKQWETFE
# UniProt Q96SQ9: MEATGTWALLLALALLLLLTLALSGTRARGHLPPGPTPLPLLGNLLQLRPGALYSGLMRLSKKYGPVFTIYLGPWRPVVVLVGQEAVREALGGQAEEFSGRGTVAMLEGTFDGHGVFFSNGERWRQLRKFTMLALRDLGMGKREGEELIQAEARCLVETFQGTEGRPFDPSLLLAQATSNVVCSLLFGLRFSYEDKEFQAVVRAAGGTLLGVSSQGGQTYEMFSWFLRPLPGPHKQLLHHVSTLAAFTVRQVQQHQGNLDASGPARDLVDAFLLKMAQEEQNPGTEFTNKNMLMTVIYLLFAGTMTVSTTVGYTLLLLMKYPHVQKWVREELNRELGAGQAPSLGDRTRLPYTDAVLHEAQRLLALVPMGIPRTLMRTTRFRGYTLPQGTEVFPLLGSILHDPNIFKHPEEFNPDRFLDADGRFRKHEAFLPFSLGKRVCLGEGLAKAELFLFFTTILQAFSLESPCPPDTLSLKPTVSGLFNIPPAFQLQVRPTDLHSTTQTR
# UniProt Q96JK2, whole entry, looked up: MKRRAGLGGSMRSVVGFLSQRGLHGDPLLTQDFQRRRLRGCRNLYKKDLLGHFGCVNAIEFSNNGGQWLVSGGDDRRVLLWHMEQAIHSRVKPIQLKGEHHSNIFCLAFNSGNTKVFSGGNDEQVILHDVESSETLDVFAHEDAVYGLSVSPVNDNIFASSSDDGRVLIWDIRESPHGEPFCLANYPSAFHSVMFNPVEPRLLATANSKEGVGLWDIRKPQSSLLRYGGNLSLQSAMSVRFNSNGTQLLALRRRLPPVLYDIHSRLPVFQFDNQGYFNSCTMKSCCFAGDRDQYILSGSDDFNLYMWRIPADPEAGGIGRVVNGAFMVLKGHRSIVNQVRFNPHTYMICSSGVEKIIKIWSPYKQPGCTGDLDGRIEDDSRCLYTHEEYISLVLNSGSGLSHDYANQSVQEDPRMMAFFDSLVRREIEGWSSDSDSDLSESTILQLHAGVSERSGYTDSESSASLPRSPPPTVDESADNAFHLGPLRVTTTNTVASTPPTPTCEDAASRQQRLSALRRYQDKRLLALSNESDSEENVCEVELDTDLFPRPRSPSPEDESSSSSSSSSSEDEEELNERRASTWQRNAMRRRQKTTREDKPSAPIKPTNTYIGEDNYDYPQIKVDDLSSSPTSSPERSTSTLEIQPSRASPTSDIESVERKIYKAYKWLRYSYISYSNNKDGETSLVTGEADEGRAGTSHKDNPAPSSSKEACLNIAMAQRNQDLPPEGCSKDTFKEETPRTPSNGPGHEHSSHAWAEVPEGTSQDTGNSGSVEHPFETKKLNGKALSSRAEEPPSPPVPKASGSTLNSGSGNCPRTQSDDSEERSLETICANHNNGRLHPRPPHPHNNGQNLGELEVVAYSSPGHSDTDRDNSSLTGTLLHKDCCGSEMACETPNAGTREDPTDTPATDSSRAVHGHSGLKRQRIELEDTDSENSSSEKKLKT
# UniProt Q8WVC6: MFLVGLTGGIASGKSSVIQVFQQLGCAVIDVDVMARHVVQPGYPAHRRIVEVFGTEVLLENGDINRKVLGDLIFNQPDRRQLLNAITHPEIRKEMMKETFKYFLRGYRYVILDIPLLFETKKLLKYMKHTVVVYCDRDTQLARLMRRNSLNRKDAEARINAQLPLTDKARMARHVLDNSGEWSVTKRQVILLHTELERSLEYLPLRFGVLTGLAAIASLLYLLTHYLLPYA
# UniProt Q5VW00: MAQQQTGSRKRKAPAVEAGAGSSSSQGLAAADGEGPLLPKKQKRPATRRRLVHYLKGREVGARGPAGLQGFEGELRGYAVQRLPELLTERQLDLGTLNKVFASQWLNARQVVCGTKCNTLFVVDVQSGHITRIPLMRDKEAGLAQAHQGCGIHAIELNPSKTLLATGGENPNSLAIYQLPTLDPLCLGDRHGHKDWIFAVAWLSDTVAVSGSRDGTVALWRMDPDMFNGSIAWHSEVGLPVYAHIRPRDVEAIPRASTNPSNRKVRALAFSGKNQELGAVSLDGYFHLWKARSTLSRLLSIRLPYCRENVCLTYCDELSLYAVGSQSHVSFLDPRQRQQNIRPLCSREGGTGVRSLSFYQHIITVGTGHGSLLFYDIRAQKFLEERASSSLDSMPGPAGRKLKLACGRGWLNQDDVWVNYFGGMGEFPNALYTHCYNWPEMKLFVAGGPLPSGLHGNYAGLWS
# UniProt Q9NX09: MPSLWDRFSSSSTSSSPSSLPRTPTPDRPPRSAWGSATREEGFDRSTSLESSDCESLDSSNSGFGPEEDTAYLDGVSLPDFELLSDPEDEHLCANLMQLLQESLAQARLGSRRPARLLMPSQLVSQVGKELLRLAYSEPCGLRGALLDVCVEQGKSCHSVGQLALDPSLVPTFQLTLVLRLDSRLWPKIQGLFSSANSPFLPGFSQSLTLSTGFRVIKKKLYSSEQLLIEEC
# UniProt Q05D60: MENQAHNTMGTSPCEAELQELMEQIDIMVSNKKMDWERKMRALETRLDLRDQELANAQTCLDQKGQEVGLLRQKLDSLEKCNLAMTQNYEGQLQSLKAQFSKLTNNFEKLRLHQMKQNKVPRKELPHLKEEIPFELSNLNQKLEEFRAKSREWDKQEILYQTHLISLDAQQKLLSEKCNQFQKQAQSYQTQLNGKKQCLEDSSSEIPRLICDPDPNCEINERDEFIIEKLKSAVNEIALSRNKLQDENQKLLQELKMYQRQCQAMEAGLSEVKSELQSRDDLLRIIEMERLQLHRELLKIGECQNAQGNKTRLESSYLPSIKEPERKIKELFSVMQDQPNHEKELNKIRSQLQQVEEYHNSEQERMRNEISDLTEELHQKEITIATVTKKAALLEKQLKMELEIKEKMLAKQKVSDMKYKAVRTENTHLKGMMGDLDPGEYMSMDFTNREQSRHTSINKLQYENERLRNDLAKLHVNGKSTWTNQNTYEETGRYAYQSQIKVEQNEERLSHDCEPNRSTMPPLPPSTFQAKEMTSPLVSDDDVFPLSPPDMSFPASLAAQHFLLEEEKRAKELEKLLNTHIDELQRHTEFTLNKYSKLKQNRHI
# UniProt O43293: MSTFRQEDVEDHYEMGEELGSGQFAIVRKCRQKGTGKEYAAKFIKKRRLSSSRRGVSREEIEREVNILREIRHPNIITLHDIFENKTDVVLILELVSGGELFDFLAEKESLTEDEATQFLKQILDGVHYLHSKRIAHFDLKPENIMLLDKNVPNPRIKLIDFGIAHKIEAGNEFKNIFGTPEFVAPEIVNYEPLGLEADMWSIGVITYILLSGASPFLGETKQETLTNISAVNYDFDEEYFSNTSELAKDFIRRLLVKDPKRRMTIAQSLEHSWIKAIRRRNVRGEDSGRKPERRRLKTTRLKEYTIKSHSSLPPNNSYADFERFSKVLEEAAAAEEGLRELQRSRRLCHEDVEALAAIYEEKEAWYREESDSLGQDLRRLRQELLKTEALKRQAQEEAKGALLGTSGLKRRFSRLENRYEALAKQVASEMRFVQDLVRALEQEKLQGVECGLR
# This is one part of the list.
# How the values were obtained:
# Assay in all cases: log2 fold change, soluble protein after heating vs DMSO (PISA); higher = thermal stabilisation; K562 lysate, 10 uM; active = over 0.2 and 3.5 SD of the protein, either way, in both replicates (recomputed)
# Tubastatin A = compound: CN1CCc2c(c3ccccc3n2Cc2ccc(C(=O)NO)cc2)C1 [Tubastatin A]
# Summary of the method: (§1)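 Dounce homogenisation of K562 pellets in PBS pH 7.4 with 1 mM MgCl2 produced a crude extract, used at 1 mg/mL protein. Exposure to 10 μM compound lasted 30 min, and aliquots were then heated for 3 min across 48°C-58°C, pooled and brought to 0.5% NP-40 at 4°C. The supernatant after 21,000xg for 90 min was quantified by TMTpro 16plex LC-MS/MS with channel sums equalised. Duplicate values are given as log-two fold change in thermal stability relative to solvent controls.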
# [1] = compound: CNC(=O)C1=CC=CC=C1NC2=NC(=NC=C2Cl)NC3=C(C=C(C=C3)N4CCOCC4)OC
# Summary of the method: as §1
# [2] = compound: COc1cc2nc(-c3cc(F)ccc3O)nc(N[C@@H]3CNC[C@H]3C(C)(C)O)c2cc1OC
# Summary of the method: as §1
# lapatinib = compound: CS(=O)(=O)CCNCc1ccc(-c2ccc3ncnc(Nc4ccc(OCc5cccc(F)c5)c(Cl)c4)c3c2)o1 [lapatinib]
# Summary of the method: as §1
# crizotinib = compound: C[C@@H](Oc1cc(-c2cnn(C3CCNCC3)c2)cnc1N)c1c(Cl)ccc(F)c1Cl [crizotinib]
# Summary of the method: as §1
# doramapimod = compound: Cc1ccc(-n2nc(C(C)(C)C)cc2NC(=O)Nc2ccc(OCCN3CCOCC3)c3ccccc23)cc1 [doramapimod]
# Summary of the method: as §1
# alisertib = compound: COc1cc(Nc2ncc3c(n2)-c2ccc(Cl)cc2C(c2c(F)cccc2OC)=NC3)ccc1C(=O)O [alisertib]
# Summary of the method: as §1
# gefitinib = compound: COc1cc2ncnc(Nc3ccc(F)c(Cl)c3)c2cc1OCCCN1CCOCC1 [gefitinib]
# Summary of the method: as §1
# defactinib = compound: CNC(=O)c1ccc(Nc2ncc(C(F)(F)F)c(NCc3nccnc3N(C)S(C)(=O)=O)n2)cc1 [defactinib]
# Summary of the method: as §1
# [3] = compound: CNc1nc(-c2ccc3c(N)n[nH]c3c2)cc(N2C[C@@H](C(=O)NC3CCCCC3)CC[C@H]2C)n1
# Summary of the method: as §1
# encorafenib = compound: COC(=O)N[C@@H](C)CNc1nccc(-c2cn(C(C)C)nc2-c2cc(Cl)cc(NS(C)(=O)=O)c2F)n1 [encorafenib]
# Summary of the method: as §1
# [4] = compound: COC(=O)[C@H](CCSC)NC(=O)C1=C(C=C(C=C1)NC[C@H](CS)N)C2=CC=CC=C2
# Summary of the method: as §1
# duvelisib = compound: C[C@H](Nc1ncnc2nc[nH]c12)c1cc2cccc(Cl)c2c(=O)n1-c1ccccc1 [duvelisib]
# Summary of the method: as §1
# tozasertib = compound: Cc1cc(Nc2cc(N3CCN(C)CC3)nc(Sc3ccc(NC(=O)C4CC4)cc3)n2)n[nH]1 [tozasertib]
# Summary of the method: as §1
# alvocidib = compound: CN1CC[C@H](c2c(O)cc(O)c3c(=O)cc(-c4ccccc4Cl)oc23)[C@H](O)C1 [alvocidib]
# Summary of the method: as §1
# pictilisib = compound: CS(=O)(=O)N1CCN(Cc2cc3nc(-c4cccc5[nH]ncc45)nc(N4CCOCC4)c3s2)CC1 [pictilisib]
# Summary of the method: as §1
# [5] = compound: C[C@H](C1=CC=C(C=C1)C(=O)NC2=C3C=CNC3=NC=C2)N
# Summary of the method: as §1
# gandotinib = compound: Cc1cc(Nc2cc(CN3CCOCC3)c3nc(C)c(Cc4ccc(Cl)cc4F)n3n2)n[nH]1 [gandotinib]
# Summary of the method: as §1
# bafetinib = compound: Cc1ccc(NC(=O)c2ccc(CN3CC[C@H](N(C)C)C3)c(C(F)(F)F)c2)cc1Nc1nccc(-c2cncnc2)n1 [bafetinib]
# Summary of the method: as §1
# [6] = compound: Cc1cccc(CC(=O)N2CCc3c2ccc(-c2cn(C)c4ncnc(N)c24)c3F)n1
# Summary of the method: as §1
target,measurement,setting,value
DET1 isoform 2 (UniProt Q7L5Y6),log2 fold change,Tubastatin A,inactive: -0.134
same,log2 fold change,[1],inactive: -0.016
same,log2 fold change,[2],inactive: 0.02
same,log2 fold change,lapatinib,inactive: 0.016
same,log2 fold change,crizotinib,inactive: -0.063
same,log2 fold change,doramapimod,inactive: -0.038
DCTD (UniProt D6RAD7),log2 fold change,alisertib,inactive: 0.008
same,log2 fold change,gefitinib,inactive: -0.026
CYP2R1 (UniProt Q6VVX0),log2 fold change,Tubastatin A,inactive: -0.064
same,log2 fold change,[1],inactive: -0.077
same,log2 fold change,defactinib,inactive: 0.027
same,log2 fold change,[3],inactive: -0.022
same,log2 fold change,encorafenib,inactive: 0.036
same,log2 fold change,[4],inactive: -0.057
same,log2 fold change,alisertib,inactive: 0.033
same,log2 fold change,[2],inactive: -0.054
same,log2 fold change,gefitinib,inactive: 0.04
same,log2 fold change,lapatinib,inactive: 0.035
same,log2 fold change,duvelisib,inactive: 0.021
same,log2 fold change,tozasertib,inactive: 0.014
DDX19A isoform 2 (UniProt Q9NUU7),log2 fold change,crizotinib,inactive: -0.527
same,log2 fold change,doramapimod,inactive: 0.093
DAZAP2 (UniProt Q15038),log2 fold change,[1],inactive: -0.094
DCAF4 (UniProt Q8WV16),log2 fold change,alvocidib,inactive: 0.036
same,log2 fold change,[3],inactive: -0.029
same,log2 fold change,encorafenib,inactive: 0.004
same,log2 fold change,[4],inactive: 0.011
same,log2 fold change,alisertib,inactive: -0.245
same,log2 fold change,[2],inactive: 0.254
same,log2 fold change,gefitinib,inactive: -0.104
same,log2 fold change,lapatinib,inactive: -0.004
same,log2 fold change,pictilisib,inactive: -0.032
same,log2 fold change,crizotinib,inactive: -0.153
same,log2 fold change,[5],inactive: -0.056
same,log2 fold change,duvelisib,inactive: -0.016
same,log2 fold change,gandotinib,inactive: 0.083
same,log2 fold change,tozasertib,inactive: 0.095
same,log2 fold change,doramapimod,inactive: 0.082
same,log2 fold change,bafetinib,inactive: 0.202
same,log2 fold change,[6],inactive: 0.255
DENND5A (UniProt Q6IQ26),log2 fold change,[3],inactive: -0.103
same,log2 fold change,crizotinib,inactive: 0.107
same,log2 fold change,duvelisib,inactive: -0.082
same,log2 fold change,doramapimod,inactive: -0.102
DAPK2 isoform 2 (UniProt Q9UIK4),log2 fold change,Tubastatin A,inactive: 0.195
same,log2 fold change,[1],inactive: 0.297
same,log2 fold change,defactinib,inactive: 0.098
same,log2 fold change,[2],inactive: 0.027
same,log2 fold change,lapatinib,inactive: -0.168
DENND1A isoform 6 (UniProt Q8TEH3),log2 fold change,Tubastatin A,inactive: 0.004
same,log2 fold change,[1],inactive: -0.012
same,log2 fold change,defactinib,inactive: 0.021
same,log2 fold change,[3],inactive: -0.099
same,log2 fold change,encorafenib,inactive: 0.031
same,log2 fold change,[4],inactive: 0.075
same,log2 fold change,alisertib,inactive: -0.233
same,log2 fold change,[2],inactive: 0.011
same,log2 fold change,gefitinib,inactive: -0.089
same,log2 fold change,lapatinib,inactive: -0.127
same,log2 fold change,pictilisib,inactive: -0.019
same,log2 fold change,crizotinib,inactive: -0.149
same,log2 fold change,duvelisib,inactive: -0.028
same,log2 fold change,tozasertib,inactive: -0.039
same,log2 fold change,doramapimod,inactive: 0.034
same,log2 fold change,bafetinib,inactive: 0.041
DEPDC1B (UniProt Q8WUY9),log2 fold change,Tubastatin A,inactive: -0.024
same,log2 fold change,defactinib,inactive: -0.113
same,log2 fold change,[3],inactive: -0.388
same,log2 fold change,encorafenib,inactive: -0.037
same,log2 fold change,[4],inactive: 0.04
same,log2 fold change,alisertib,inactive: 0.054
same,log2 fold change,gefitinib,inactive: -0.026
same,log2 fold change,duvelisib,inactive: 0.068
same,log2 fold change,tozasertib,inactive: -0.439
CYP4V2 (UniProt Q6ZWL3),log2 fold change,Tubastatin A,inactive: -0.1
same,log2 fold change,[1],inactive: -0.007
same,log2 fold change,[3],inactive: 0.045
same,log2 fold change,[2],inactive: -0.066
same,log2 fold change,lapatinib,inactive: 0.049
same,log2 fold change,pictilisib,active: -0.441
same,log2 fold change,crizotinib,inactive: 0.12
same,log2 fold change,duvelisib,inactive: 0.031
same,log2 fold change,doramapimod,inactive: 0.027
same,log2 fold change,bafetinib,inactive: 0.177
CYP2S1 isoform 2 (UniProt Q96SQ9),log2 fold change,Tubastatin A,inactive: 0.027
same,log2 fold change,[1],inactive: -0.085
same,log2 fold change,defactinib,inactive: -0.022
same,log2 fold change,[3],inactive: -0.151
same,log2 fold change,encorafenib,inactive: 0.024
same,log2 fold change,[4],inactive: 0
same,log2 fold change,[2],inactive: -0.219
same,log2 fold change,lapatinib,inactive: 0.316
same,log2 fold change,crizotinib,inactive: 0.023
same,log2 fold change,duvelisib,inactive: -0.075
same,log2 fold change,tozasertib,inactive: -0.023
same,log2 fold change,doramapimod,inactive: -0.057
DDX39B (UniProt H0Y400),log2 fold change,[2],inactive: 0.204
same,log2 fold change,lapatinib,inactive: 0.091
DAZAP1 (UniProt K7EQ02),log2 fold change,alisertib,inactive: 0.071
same,log2 fold change,gefitinib,inactive: -0.084
DDB1 isoform 2 (UniProt Q16531),log2 fold change,alvocidib,inactive: -0.377
same,log2 fold change,[2],inactive: 0.041
same,log2 fold change,lapatinib,inactive: -0.119
same,log2 fold change,[5],inactive: -0.904
same,log2 fold change,gandotinib,inactive: 0.188
same,log2 fold change,[6],inactive: 0.349
DCAF5 (UniProt Q96JK2),log2 fold change,defactinib,inactive: 0.286
same,log2 fold change,[3],inactive: 0.064
same,log2 fold change,crizotinib,inactive: -0.031
same,log2 fold change,duvelisib,inactive: -0.037
same,log2 fold change,doramapimod,inactive: 0.009
DCAKD (UniProt Q8WVC6),log2 fold change,Tubastatin A,inactive: -0.007
same,log2 fold change,defactinib,inactive: 0.151
same,log2 fold change,alisertib,inactive: -0.063
same,log2 fold change,gefitinib,inactive: 0.164
DCAF12L2 (UniProt Q5VW00),log2 fold change,defactinib,inactive: -0.07
same,log2 fold change,encorafenib,inactive: 0.05
same,log2 fold change,[4],inactive: -0.058
same,log2 fold change,pictilisib,inactive: -0.044
same,log2 fold change,tozasertib,inactive: 0.104
same,log2 fold change,bafetinib,inactive: 0.003
DCAF17 (UniProt Q5H9S7),log2 fold change,alisertib,inactive: -0.011
same,log2 fold change,[2],inactive: -0.238
same,log2 fold change,gefitinib,inactive: -0.235
same,log2 fold change,lapatinib,inactive: 0.061
DDX39B (UniProt F6R6M7),log2 fold change,alvocidib,inactive: 0.103
same,log2 fold change,alisertib,inactive: -0.078
same,log2 fold change,gefitinib,inactive: 0.221
same,log2 fold change,[5],inactive: -0.116
same,log2 fold change,gandotinib,inactive: -0.076
same,log2 fold change,[6],inactive: -0.081
DCAF12 (UniProt Q5T6F0),log2 fold change,Tubastatin A,inactive: 0.058
same,log2 fold change,[1],inactive: 0.032
same,log2 fold change,defactinib,inactive: -0.006
same,log2 fold change,[3],inactive: 0.022
same,log2 fold change,encorafenib,inactive: 0.07
same,log2 fold change,[4],inactive: 0
same,log2 fold change,alisertib,inactive: -0.107
same,log2 fold change,gefitinib,inactive: 0.209
same,log2 fold change,pictilisib,inactive: 0.032
same,log2 fold change,crizotinib,inactive: -0.008
same,log2 fold change,duvelisib,inactive: -0.056
same,log2 fold change,tozasertib,inactive: 0.049
same,log2 fold change,doramapimod,inactive: -0.065
same,log2 fold change,bafetinib,inactive: 0.037
DDIT4 (UniProt Q9NX09),log2 fold change,defactinib,inactive: -0.08
same,log2 fold change,encorafenib,inactive: 0.117
same,log2 fold change,[4],inactive: 0.065
same,log2 fold change,crizotinib,inactive: -0.007
same,log2 fold change,tozasertib,inactive: -0.077
same,log2 fold change,doramapimod,inactive: 0.167
DEUP1 (UniProt Q05D60),log2 fold change,Tubastatin A,inactive: 0.373
same,log2 fold change,[1],inactive: -0.046
same,log2 fold change,[3],inactive: 0.757
same,log2 fold change,encorafenib,inactive: -0.059
same,log2 fold change,[4],inactive: -0.043
same,log2 fold change,alisertib,inactive: -0.029
same,log2 fold change,[2],inactive: 0.247
same,log2 fold change,gefitinib,inactive: -0.283
same,log2 fold change,lapatinib,inactive: -0.133
same,log2 fold change,pictilisib,inactive: -0.063
same,log2 fold change,crizotinib,inactive: 0.052
same,log2 fold change,duvelisib,inactive: 0.044
same,log2 fold change,tozasertib,inactive: 0.072
same,log2 fold change,doramapimod,inactive: -0.086
same,log2 fold change,bafetinib,inactive: -0.138
DEAF1 (UniProt O75398),log2 fold change,[3],inactive: 0.354
same,log2 fold change,encorafenib,inactive: -0.078
same,log2 fold change,[4],inactive: 0.269
same,log2 fold change,duvelisib,inactive: 0.056
same,log2 fold change,tozasertib,inactive: 0.003
DCUN1D1 (UniProt C9JVE2),log2 fold change,Tubastatin A,inactive: 0.061
same,log2 fold change,[1],inactive: -0.097
same,log2 fold change,[3],inactive: 0.254
same,log2 fold change,encorafenib,inactive: -0.149
same,log2 fold change,[4],inactive: -0.004
same,log2 fold change,[2],inactive: 0.082
same,log2 fold change,lapatinib,inactive: -0.028
same,log2 fold change,pictilisib,inactive: -0.178
same,log2 fold change,crizotinib,inactive: -0.307
same,log2 fold change,duvelisib,inactive: 0.057
same,log2 fold change,tozasertib,inactive: -0.285
same,log2 fold change,doramapimod,inactive: 0.004
same,log2 fold change,bafetinib,inactive: 0.036
DENND1C (UniProt Q8IV53),log2 fold change,Tubastatin A,inactive: 0.077
same,log2 fold change,[1],inactive: 0.04
same,log2 fold change,defactinib,inactive: 0
same,log2 fold change,[3],inactive: 0.326
same,log2 fold change,pictilisib,inactive: -0.057
same,log2 fold change,crizotinib,inactive: -0.102
same,log2 fold change,duvelisib,inactive: 0.082
same,log2 fold change,doramapimod,inactive: 0.095
same,log2 fold change,bafetinib,inactive: -0.305
DAPK3 (UniProt O43293),log2 fold change,alvocidib,inactive: 0.017
same,log2 fold change,defactinib,inactive: -0.019
same,log2 fold change,[2],inactive: -0.131
same,log2 fold change,lapatinib,inactive: -0.026
same,log2 fold change,[5],inactive: 0.048
same,log2 fold change,gandotinib,inactive: 0.507
same,log2 fold change,[6],inactive: -0.079

# Given with tabs: part of the list above.
target	measurement	setting	value
DDX19A isoform 2 (UniProt Q9NUU7)	log2 fold change	doramapimod	inactive: 0.093
DAZAP2 (UniProt Q15038)	log2 fold change	[1]	inactive: -0.094

# Quoted at random: six records from the list
target,measurement,setting,value
DENND1A isoform 6 (UniProt Q8TEH3),log2 fold change,encorafenib,inactive: 0.031
same,log2 fold change,Tubastatin A,inactive: 0.004
DCUN1D1 (UniProt C9JVE2),log2 fold change,lapatinib,inactive: -0.028
DEAF1 (UniProt O75398),log2 fold change,tozasertib,inactive: 0.003
DCAF5 (UniProt Q96JK2),log2 fold change,[3],inactive: 0.064
DCAKD (UniProt Q8WVC6),log2 fold change,defactinib,inactive: 0.151
